Measurements: patent US20220184052A1, “COMPOSITION COMPRISING FEXOFENADINE” (Cellix Bio Private Limited, priority 2020, published 2022)
Where a name gives a salt, the structure may show the parent alone.

Experiment: Observations during formulation development (crystallisation, RC-A impurities, viscosity)
Assay type: physicochemical
Details: depending upon the solvent used
Source text: During experimentation, it could also be noted that when PEG-400 is used as one of the solvent, it results in higher amounts of RC-A impurities. When propylene glycol (PG) is used in place of PEG-400, it affords dramatic reduction of RC-A impurities as compared to PEG-400.

For `CC(C)(C(=O)O)c1ccc(C(O)CCCN2CCC(C(O)(c3ccccc3)c3ccccc3)CC2)cc1` (stereo not shown) [API, Fexofenadine HCl], the “Polymorphic nature / conversion into crystalline form” value was “tendency to convert into crystalline form”.
